Consider 1 molecule from patent publication US20230391865A1.

Protein sequences, listed by entry. Tags and fused reporters are not part of them.
UniProt O60637: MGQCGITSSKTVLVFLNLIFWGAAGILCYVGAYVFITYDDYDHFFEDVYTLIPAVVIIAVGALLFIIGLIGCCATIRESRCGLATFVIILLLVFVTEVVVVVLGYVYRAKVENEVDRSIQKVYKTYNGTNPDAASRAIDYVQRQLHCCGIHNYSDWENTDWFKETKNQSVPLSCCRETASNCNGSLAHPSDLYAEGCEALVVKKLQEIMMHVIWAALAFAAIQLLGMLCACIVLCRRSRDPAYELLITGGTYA

The target in the assay is human Tetraspanin-3 (TSPAN3) (human) (UniProt O60637). The assay can be described thus: FACS screen of hybridoma clones on cell surface expressed TSPAN3.

These are yes or no findings as the source states them, for the method shown. Some binding calls cover weakened binding; strength is not graded here.

B1: Anti-TSPAN3 M3 clone monoclonal antibody (antibody, V domains shown)
VH: QIQLVQSGPELKKPGETVKISCKASGYTFTTYGMSWVKQAPGKGLKWMGWINTYSGVPTYADDFKGRFAFSLETSASTAYLQINNLKNEDTATYFCARSHYSNFYAMDYWGQEPQSP
VL: DIVMTQSHKFMSTSVGDRVSITCKASQDVGTAVAWYQQKPGQSPKLLIYWASTRHTGVPDRFTGSGSGTDFTLTISNVQSEDLADYFCQQYSSYPLTFGAGTKLELK
B1: the binding entry is on record as “binds”.
